PubChem BioAssay AID1508597 | Cure First, 2020
This is a random part of the about 2,100 reagents, in one setting of the screen. 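Calls flag viability under 80% in either arm, not effects specific to rucaparib; the reference for percent is not stated.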 The record does not give: the 100% reference.

- Assay: 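Survival screen with siRNA in ovarian cancer cells derived from patients, with or without rucaparib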 (primary screen)
- System: human ovarian carcinoma lines grown from tumours: OCI-P5x (papillary serous) and OCI-C5x (clear cell)
- Reagent: siRNA pool against human genes, 1.25 pmol siRNA per well
- Duration: 72 h or 96 h, depending on the cell culture
- Challenge: rucaparib 20 µM (about IC30) or vehicle, present until read-out
- Rucaparib or vehicle: Vehicle
- Cell line: OCI-P5x (serous)
- Detection: 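ATP luminescence measured at 72 or 96 h according to the culture, then normalised and expressed as percent viability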
- Reading the numbers: viability, normalised: higher = more viable cells remaining
- Active means: 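Active when normalised viability falls below 80 percent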
- Meaning of the calls: active = viability under 80%; inactive = viability 80% or more

| gene knocked down | technical replicate | viability, normalised (%) | Outcome |
| --- | --- | --- | --- |
| NODAL (nodal growth differentiation factor) | 1 | 65 | active |
| NODAL (nodal growth differentiation factor) | 2 | 67.6 | active |
| NODAL (nodal growth differentiation factor) | 3 | 83.5 | inactive |
| MAP2K1 (mitogen-activated protein kinase kinase 1) | 1 | 73.9 | active |
| MAP2K1 (mitogen-activated protein kinase kinase 1) | 2 | 83.7 | inactive |
| MAP2K1 (mitogen-activated protein kinase kinase 1) | 3 | 65.6 | active |
| SFN (stratifin) | 1 | 71.8 | active |
| SFN (stratifin) | 2 | 79.6 | active |
| SFN (stratifin) | 3 | 102 | inactive |
| SNAPC4 (small nuclear RNA activating complex polypeptide 4) | 1 | 55.9 | active |
| SNAPC4 (small nuclear RNA activating complex polypeptide 4) | 2 | 47.4 | active |
| SNAPC4 (small nuclear RNA activating complex polypeptide 4) | 3 | 56.1 | active |
| ALKBH3 (alkB homolog 3, alpha-ketoglutarate dependent dioxygenase) | 1 | 75.8 | active |
| ALKBH3 (alkB homolog 3, alpha-ketoglutarate dependent dioxygenase) | 2 | 74.7 | active |
| ALKBH3 (alkB homolog 3, alpha-ketoglutarate dependent dioxygenase) | 3 | 62.5 | active |
| MUC16 (mucin 16, cell surface associated) | 1 | 79.3 | active |
| MUC16 (mucin 16, cell surface associated) | 2 | 71.9 | active |
| MUC16 (mucin 16, cell surface associated) | 3 | 71.1 | active |
| ACVRL1 (activin A receptor like type 1) | 1 | 78.2 | active |
| ACVRL1 (activin A receptor like type 1) | 2 | 73.4 | active |
| ACVRL1 (activin A receptor like type 1) | 3 | 68.2 | active |
| RINT1 (RAD50 interactor 1) | 1 | 61.7 | active |
| RINT1 (RAD50 interactor 1) | 2 | 74.3 | active |
| RINT1 (RAD50 interactor 1) | 3 | 75.2 | active |
